Data from PubChem BioAssay AID652054 (National Center for Advancing Translational Sciences (NCATS), 2013).
Values joined by “and” are separate entries in the source; they are usually repeats but may differ in a detail not shown here. Equal entries are not always repeated. Out of some 360,000 compounds screened, about 9,100 (2.5%) were called active. The inconclusive results got no clear call from the source; some entries with a clear call stand among them for comparison. No stated cut-off is given here; in the data, active means max response below about -50%; inconclusive means no clear call, values can overlap the other calls; inactive means above that.

Chains of the proteins cited; added tags and fusions are not shown.
UniProt P35462, whole entry, looked up: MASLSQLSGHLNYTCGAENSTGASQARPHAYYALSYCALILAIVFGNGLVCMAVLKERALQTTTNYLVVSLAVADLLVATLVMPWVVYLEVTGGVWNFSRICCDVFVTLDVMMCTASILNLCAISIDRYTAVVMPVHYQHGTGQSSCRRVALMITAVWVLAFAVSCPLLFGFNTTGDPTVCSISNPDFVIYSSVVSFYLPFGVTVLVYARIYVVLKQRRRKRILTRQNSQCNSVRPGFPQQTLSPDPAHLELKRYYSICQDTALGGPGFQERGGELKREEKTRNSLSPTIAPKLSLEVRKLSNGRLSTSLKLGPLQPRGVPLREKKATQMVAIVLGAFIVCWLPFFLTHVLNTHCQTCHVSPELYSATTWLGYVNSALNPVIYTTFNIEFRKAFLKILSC

Target: D(3) dopamine receptor (Homo sapiens) (UniProt P35462)
Test: qHTS of D3 Dopamine Receptor Antagonist: qHTS
Settings: D3R cells, DiscoveRx beta-arrestin luminescence, antagonist mode; active compounds read low
Method in brief: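 Cells expressing the human receptor were seeded at 1500 cells/well, incubated overnight at 37 degrees C in 5% CO2, then exposed to library compounds with dopamine controls for 90 minutes at 37 degrees C before luminescent detection.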
On the % scale 0 is the no-effect control and ±100 the full control effect.

Max response, negative = inhibition, inactive:
CC1(C)Cc2cccc(OCC(=O)OCC(=O)Nc3ccccc3)c2O1 -21.7%
Cn1c2ccccc2c2cc(/C=N/NC(=O)c3ccc(N)cc3)ccc21 -4.52%
CN1C(=O)/C(=N\OC(=O)c2ccccc2Cl)c2ccccc21 -0.379%
CC(=O)c1ccc(NC(=O)C(C)Oc2ccc(N(C)S(=O)(=O)c3ccc(C)cc3)cc2)cc1 (stereo unspecified) -3.78%
CCCS(=O)(=O)N1CCN=C1SCc1cccc(C)c1 7.7%
O=C(O)CC(NC(=O)c1cccc([N+](=O)[O-])c1)c1ccc2c(c1)OCO2 (stereo unspecified) -9.73%
CN(CC(=O)Nc1ccc(F)c(F)c1)S(=O)(=O)c1cccc2cccnc12 12.9%
CC(C(=O)Nc1ccc2c(c1)OCO2)N(c1ccc(Cl)cc1)S(C)(=O)=O (stereo unspecified) -6.55%
O=[N+]([O-])c1ccc(S(=O)(=O)NCC(c2cccnc2)N2CCc3ccccc3C2)cc1 (stereo unspecified) 3.44%
COc1cccc(-c2noc(-c3ccc(Br)o3)n2)c1 0.839%
CC1(C)CSC(=NCc2ccccc2)N1C(=O)c1cccc([N+](=O)[O-])c1 -29.3%
Cc1cn([C@H]2C[C@H](O)[C@@H](CNC(=O)c3ccccn3)O2)c(=O)[nH]c1=O -14.6%
CC(C)(C)c1ccc(OCCC(=O)Nc2ccc(N3CCOCC3)cc2N2CCOCC2)cc1 1.49%
O=C(CSc1nnc(-c2ccccc2Cl)o1)Nc1ccccn1 12.1%
CC(=O)c1ccc(NC(=O)Nc2ccc(Cl)cc2)cc1 10.5%
Cc1nc2c(cnn2-c2ccccc2Cl)c(=O)n1-c1ccc(C(C)C)cc1 1.9%
CC(C)(C)c1ccc(C(=O)Nc2ccccc2C(=O)NCCN2CCOCC2)cc1 5.78%
Cc1ccc(-c2cnc(C(O)c3cc(Cl)cc(Cl)c3)[nH]2)cc1 (stereo unspecified) 17.6%
COC(CN(C(=O)CCl)C(C(=O)NC1CCCCC1)c1ccc(C)cc1)OC (stereo unspecified) -2.23%
COc1ccccc1C(=O)NC1CCCCCCC1 0.996%
CN1CCN(S(=O)(=O)c2ccc(NC(=O)COc3ccccc3Cl)cc2)CC1 4.43%
Cc1cc(C(=O)Nc2cccc3c2O[C@@H](CN(C)S(=O)(=O)c2ccccc2)[C@H](C)CN([C@@H](C)CO)C3=O)n(C)n1 22.1%
C/C=C/c1cnc2c(c1)C(=O)N([C@H](C)CO)C[C@H](C)[C@@H](CN(C)C(=O)CN1CCOCC1)O2 -1.76%
Cc1ccc(-c2nc(N)sc2CC(=O)OCC(=O)NC2CCCC(C)C2C)cc1 (stereo unspecified) 4.68%
COc1ccc(NC(=O)C2CCN(S(=O)(=O)c3cccs3)CC2)cc1OC 0.604%

Copied from the results shown (4 entries):
Max response, negative = inhibition, inactive:
CC1(C)CSC(=NCc2ccccc2)N1C(=O)c1cccc([N+](=O)[O-])c1 -29.3%
Cc1cn([C@H]2C[C@H](O)[C@@H](CNC(=O)c3ccccn3)O2)c(=O)[nH]c1=O -14.6%
CC(C)(C)c1ccc(OCCC(=O)Nc2ccc(N3CCOCC3)cc2N2CCOCC2)cc1 1.49%
O=C(CSc1nnc(-c2ccccc2Cl)o1)Nc1ccccn1 12.1%

Looked up one by one from the entries so far:
Max response, negative = inhibition, inactive:
Cc1nc2c(cnn2-c2ccccc2Cl)c(=O)n1-c1ccc(C(C)C)cc1 1.9%
CN(CC(=O)Nc1ccc(F)c(F)c1)S(=O)(=O)c1cccc2cccnc12 12.9%

Following part.

Max response, negative = inhibition, inconclusive:
O=C1C(=O)c2ccccc2C(O)=C1C1CCC(c2ccc(Cl)cc2)CC1 (stereo unspecified) -45.4%
Cn1cc(C2CC(c3ccccc3)=NN2C(=O)c2ccccc2)c2ccccc21 (stereo unspecified) -45.3%
O=C(CSC1=NCCN1)NC(c1ccccc1)c1ccccc1 -31.3%
O=C(N/N=C/c1cccc([N+](=O)[O-])c1)c1c[nH]c2ccccc12 -34.3%
O=C(/C=C/c1ccc(Cl)cc1Cl)c1nc2ccccc2[nH]1 -30.8%
CCCn1c(SCC(=O)c2ccc(OC)c(OC)c2)nc2c1c(=O)n(C)c(=O)n2C -33.9%
Cc1ccc(OCC(=O)Nc2ccc(C)c(F)c2)c([N+](=O)[O-])n1 -31.2%
Cc1ccc(Nc2c([N+](=O)[O-])cc(C(=O)N3CC(=O)Nc4ccccc43)cc2[N+](=O)[O-])c(C)c1 -49.8%
O=C(Nc1ccccc1)Nc1ncc([N+](=O)[O-])s1 -33.6%
CC(C(=O)c1ccc(Br)cc1)[n+]1cccc2ccccc21 (stereo unspecified) -47.6%
COC(=O)c1ccccc1Sc1ncnc2onc(C)c12 -37.6%
C#CCOCCOCCOCCNc1nc(N2CCN(C(=O)Cn3cc(CCCCN)nn3)CC2)nc(N2CCN(C(=O)[C@H]([C@@H](C)CC)n3cc(CCCN=C(N)N)nn3)CC2)n1 -43.8%
C=CCNC(=S)NNc1nc(Nc2ccccc2)nc(N2CCCCC2)n1 -31.2%
Cc1ccc(NC(=O)c2cnc(SCC(=O)NCC3CCCO3)n(C)c2=O)cc1 (stereo unspecified) -44.2%
COc1ccc(CN2C(=O)C(Cc3ccccc3)Nc3ncnc(N4CCOCC4)c32)cc1 (stereo unspecified) -39% and -44.9%
Cc1cc(Cl)cc(C)c1OCCNCc1ccccc1 -41.7%
CC(C)(C)C1=Nn2c(nnc2-c2n[nH]c3c2CCC3)SC1 -38.4%
CCCCCOC(=O)Cc1c(O)c2ccccc2n(C)c1=O -37.5%
COc1ccccc1Cc1c(-c2ccc(Cl)cc2)nc2c(C)cc(Br)cn12 -44.9%
COc1ccc(NC(=O)N(C)[C@H]2C[C@H]3c4[nH]c5ccccc5c4CCN3C[C@H]2[C@H](C)O)cc1 -44.9%
CCN(CC)S(=O)(=O)c1ccc(N2CCCC2)c(NS(=O)(=O)c2ccc(OC)cc2)c1 -31.6%
COc1ccccc1Nc1nc(N)nc(CN2CCN(c3ccccc3)CC2)n1 -45.3%
Cn1c(Cn2c(=O)sc3ccccc32)nnc1SCC(=O)N1CCCC1 -32.4%
CC(NC(=O)CCOc1ccccc1)c1ccccc1 (stereo unspecified) -34.4%
CC(C)(C)c1ccc(OCCCNCc2ccccc2)cc1 -36.2%
Cc1ccc2c(c1)c(C)c(C)n2CC(O)CN1CCOCC1 (stereo unspecified) -34%
COc1ccc(S(=O)(=O)N(CCc2ccccc2)CC(=O)N/N=C/c2ccc3c(c2)OCO3)cc1 -30.5%
Cc1nc(C(=O)NCc2ccccc2)sc1C1(C)CC(c2cccc([N+](=O)[O-])c2)=NO1 (stereo unspecified) -35.1%
COc1ccc(N2CCN(c3nc4ccccc4n3CC(=O)c3ccccc3)CC2)cc1 -45.4%
O=C(Cn1ncc2c1-c1ccccc1OC2)N1CCc2ccccc21 -36%
Cc1ccsc1/C=N/NC(=O)c1ccc2ccccc2c1 -34.5%
COc1ccc(C(=O)Nc2cccc3c2C(=O)NC3=O)cc1S(=O)(=O)N1CCOCC1 -32%
CCCC(=O)NC(c1ccccc1)c1ccc2cccnc2c1O (stereo unspecified) -33.1%
COC(=O)c1cc(NC(=O)CC2C(=O)NCCN2C(=O)c2ccccc2)cc(C(=O)OC)c1 (stereo unspecified) -30.5%
Brc1ccc(-c2ncc(-c3ccccc3)cn2)cc1 -42.9%
COc1cc(C(=O)O/N=C2\C=CC(=O)C=C2C)cc(OC)c1OC -47.3%
C/C(=N/OC(=O)c1cccc(Cl)c1)c1nccs1 -41.4%
CN(C)c1nc(C#N)nc(N2CCOCC2)n1 -31.4%
S=C(NCCc1ccc(Cl)cc1)NCc1ccccc1 -38.8%
CCc1cc(=O)n2[nH]c(-c3ccccc3)c(-c3ccccc3)c2n1 -39.8%
C=CCc1cc(Cl)ccc1OCCOCCNC(C)CC (stereo unspecified) -33.3%
COc1cccc2sc(N(CCCN(C)C)C(=O)CCS(=O)(=O)c3ccccc3)nc12 -39%
COc1ccc(C2C(C(=O)c3ccco3)=C(O)C(=O)N2CCc2ccccc2)cc1OC (stereo unspecified) -39.4%
CCN1CCc2c(sc(NC(=S)NC(=O)c3ccccc3)c2C#N)C1 -47.2%
COCCn1ccc(O)c(Cc2ccc(Cl)cc2)c1=O -39.7%
CCOc1ccc2ccccc2c1/C=N\NC(=O)c1ccc([N+](=O)[O-])cc1 -39.5%

Max response, negative = inhibition, active:
Cc1ccc(SCc2cn3c(C)csc3n2)cc1 -52.9%
C=CCNS(=O)(=O)c1ccc(OCC(=O)OCC)cc1 -60.2%
COCCCNCC(=O)Nc1sc(C)c(C)c1C(=O)OC -52.8%
COC(=O)c1cc(OC)c(OC)c(OC)c1NC(=O)c1ccc(S(=O)(=O)N(C)C)cc1 -88.2%
CN1CCN(c2nc(NCc3ccco3)nc(N)c2[N+](=O)[O-])CC1 -80.4%
CCCCc1cc(=O)oc2cc(OC(C)C(=O)NCC3CCC(C(=O)O)CC3)c(Cl)cc12 (stereo unspecified) -58.1%
CC(C)CNC(=S)NC1CC2CCC(C1)N2Cc1ccccc1 (stereo unspecified) -74.5%
O=[N+]([O-])c1cccc(/C=N\N=C2c3ccccc3-c3ccccc32)c1O -73.9%
CC(C)(CNCc1ccccc1)NS(=O)(=O)c1ccc(Cl)cc1 -56.7%
COc1ccc(C(CNC(=O)c2ccc(S(=O)(=O)N3CC(C)CC(C)C3)cc2)N(C)C)cc1 (stereo unspecified) -62.8%
COc1ccc(OC)c(NC(=O)NCCN2CCN(c3ccccc3)CC2)c1 -67%
COc1ccc(C(CNC(=O)COc2ccc(C)c(C)c2)N2CCCCC2)cc1 (stereo unspecified) -100%
Cc1ccc(C(C)(C)C)c(OCCCCN2CCCC2)c1 -80.6%
O=C(Nc1nc(-c2cccs2)cs1)c1cccc(S(=O)(=O)N2CCCCC2)c1 -68.6%
C#CCOCCOCCOCCNc1nc(N2CCN(C(=O)CCCCCCCCCCNC(=O)[C@H](CCCCN)n3cc(C[C@@H](C)CC)nn3)CC2)nc(N2CCN(C(=O)CCCCCCCCCCNC(=O)[C@H](CCCCN)n3cc(C[C@@H](C)CC)nn3)CC2)n1 -51%
